Results deposited as PubChem BioAssay AID652272 (Drosophila RNAi Screening Center, 2013)

- Screen: 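Genome-wide knock-down search for components of Hedgehog signalling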 (primary screen)
- Cell system: Drosophila clone 8 (Cl8) cells
- Reagents: long dsRNA against Drosophila genes
- Detection: 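Plate reader light from a firefly reporter under a ptc promoter fragment that responds to Hedgehog, with Renilla light as transfection reference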
- Direction: firefly Hh reporter signal: higher = more ptc reporter light; Renilla reference signal: higher = more Renilla control light
- Rule for the call: 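Called a hit if the two-replicate mean z-score lies below -2 or above +3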
- Meaning of the calls: active = hit: reporter lowered or raised; inactive = not a hit
The screen tested about 21,000 reagents; below is a random part of those with a known target gene and a result. In the full data, 503 (2.4%) got an active call. 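Raw plate light values, not normalised; calls rest on replicate z-scores that were not deposited; hits include reporter decreases as well as increases.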 A number with no mark means an inactive call. Reagents against one gene are numbered here. A plus sign joins genes that one reagent is predicted to hit. The record does not give: the amount of reagent, the time to read-out.

With qsm (quasimodo) #1, what does the deposit list?
firefly Hh reporter signal, replicate 1: 1.20e5; firefly Hh reporter signal, replicate 2: 2.83e5; Renilla reference signal, replicate 1: 3331; Renilla reference signal, replicate 2: 10794

What did the screen give for qsm (quasimodo) #2?
firefly Hh reporter signal, replicate 1: 52480; firefly Hh reporter signal, replicate 2: 48880; Renilla reference signal, replicate 1: 1684; Renilla reference signal, replicate 2: 3179

For CG11668, what does the deposit list?
firefly Hh reporter signal, replicate 1: 1.02e5; firefly Hh reporter signal, replicate 2: 87340; Renilla reference signal, replicate 1: 3208; Renilla reference signal, replicate 2: 2547

Which result is listed for CG42304 + Snup #1?
firefly Hh reporter signal, replicate 1: 2.42e5; firefly Hh reporter signal, replicate 2: 1.57e5; Renilla reference signal, replicate 1: 8791; Renilla reference signal, replicate 2: 6512

What is on record for CG42304 + Snup #2?
firefly Hh reporter signal, replicate 1: 40133; firefly Hh reporter signal, replicate 2: 27696; Renilla reference signal, replicate 1: 1793; Renilla reference signal, replicate 2: 2476

What did the screen give for thr (three rows)?
firefly Hh reporter signal, replicate 1: 62531; firefly Hh reporter signal, replicate 2: 32188; Renilla reference signal, replicate 1: 3289; Renilla reference signal, replicate 2: 1888

What did the screen give for Dredd (Death related ced-3/Nedd2-like caspase)?
firefly Hh reporter signal, replicate 1: 1.14e5; firefly Hh reporter signal, replicate 2: 82598; Renilla reference signal, replicate 1: 2449; Renilla reference signal, replicate 2: 2537

Only “firefly Hh reporter signal, replicate 2”, for 2 of the entries above:
qsm (quasimodo) #1	2.83e5
qsm (quasimodo) #2	48880

More entries:
How did the screen score halo?
firefly Hh reporter signal, replicate 1: 1.50e5; firefly Hh reporter signal, replicate 2: 1.25e5; Renilla reference signal, replicate 1: 3298; Renilla reference signal, replicate 2: 2967

With Vps13D (Vacuolar protein sorting 13D) #1, what does the deposit list?
firefly Hh reporter signal, replicate 1: 51536; firefly Hh reporter signal, replicate 2: 42547; firefly Hh reporter signal, replicate 3: 38817; Renilla reference signal, replicate 1: 6004; Renilla reference signal, replicate 2: 3175

With Vps13D (Vacuolar protein sorting 13D) #2, what was measured?
firefly Hh reporter signal, replicate 1: 45432; firefly Hh reporter signal, replicate 2: 54780; firefly Hh reporter signal, replicate 3: 53657; Renilla reference signal, replicate 1: 5796; Renilla reference signal, replicate 2: 3904

With Cyp305a1 (Cytochrome P450 305a1), what was measured?
firefly Hh reporter signal, replicate 1: 84675; firefly Hh reporter signal, replicate 2: 49021; Renilla reference signal, replicate 1: 3019; Renilla reference signal, replicate 2: 1984

How did the screen score CG17154?
firefly Hh reporter signal, replicate 1: 24330; firefly Hh reporter signal, replicate 2: 53389; firefly Hh reporter signal, replicate 3: 45810; Renilla reference signal, replicate 1: 5197; Renilla reference signal, replicate 2: 3638

For Jarid2 (Jumonji, AT rich interactive domain 2), what does the deposit list?
firefly Hh reporter signal, replicate 1: 1.04e5; firefly Hh reporter signal, replicate 2: 44869; Renilla reference signal, replicate 1: 4963; Renilla reference signal, replicate 2: 2170

With Ir41a (Ionotropic receptor 41a) #1, how do the results read?
firefly Hh reporter signal, replicate 1: 1.43e5; firefly Hh reporter signal, replicate 2: 2.04e5; Renilla reference signal, replicate 1: 3108; Renilla reference signal, replicate 2: 7978

With Ir41a (Ionotropic receptor 41a) #2, how do the results read?
firefly Hh reporter signal, replicate 1: 97088; firefly Hh reporter signal, replicate 2: 65403; Renilla reference signal, replicate 1: 1893; Renilla reference signal, replicate 2: 6800

What is on record for CG5196?
firefly Hh reporter signal, replicate 1: 94528; firefly Hh reporter signal, replicate 2: 1.32e5; Renilla reference signal, replicate 1: 3010; Renilla reference signal, replicate 2: 3268

For CG12521, what was measured?
firefly Hh reporter signal, replicate 1: 54988; firefly Hh reporter signal, replicate 2: 45472; firefly Hh reporter signal, replicate 3: 37589; Renilla reference signal, replicate 1: 4896; Renilla reference signal, replicate 2: 3072

For ChAT (Choline acetyltransferase) #1, what was measured?
firefly Hh reporter signal, replicate 1: 56470; firefly Hh reporter signal, replicate 2: 2.89e5; Renilla reference signal, replicate 1: 11656; Renilla reference signal, replicate 2: 5563

With ChAT (Choline acetyltransferase) #2, what was measured?
firefly Hh reporter signal, replicate 1: 5.91e5; firefly Hh reporter signal, replicate 2: 1.06e5; Renilla reference signal, replicate 1: 30039; Renilla reference signal, replicate 2: 2464

What is on record for CG4829?
firefly Hh reporter signal, replicate 1: 77607; firefly Hh reporter signal, replicate 2: 84007; Renilla reference signal, replicate 1: 1970; Renilla reference signal, replicate 2: 2084

How did the screen score CG7342?
firefly Hh reporter signal, replicate 1: 98720; firefly Hh reporter signal, replicate 2: 78944; Renilla reference signal, replicate 1: 4283; Renilla reference signal, replicate 2: 3223
